Most values lie at the floor of the assay. Slopes are relative: functional sequences can read slightly below zero.
tested on: Saccharomyces cerevisiae PS128 hsf1 delta, HSF1(1-493) fusion; test: growth estimate (transactivation domain function in HSF1 fusion, heat-shock survival) (a.u. (slope of normalised read count over time)); higher = stronger growth at 37°C, i.e. more transactivation activity; settings: library: random library

Substance | growth estimate
TLYSATSGVFDCNSELLSSR | < -0.25
TMARG | < -0.25
TMGGNIKGLSDLNGIVWYTE | < -0.25
TMGQSSRQTT | < -0.25
TMIHLYFVVSQKR | < -0.25
TMLVGSLAALFQRSYCEIHA | < -0.25
TMRGIGSQLDSLLSMELGEE | < -0.25
TMSYSERN | < -0.25
TMVRR | < -0.25
TMVSV | < -0.25
TMWTVYRDRIAQSGTSVAAI | < -0.25
TNADIDLVTNLSWPEAA | -0.243
TNAYNYIIDSGPEA | < -0.25
TNCLHPKPRSRKSSTRYGRQ | < -0.25
TNDAGLVPRGPTRTSSAMFW | -0.208
TNEIALQQKATFPVCSRAMS | < -0.25
TNGGHLIGWGCQKECTSPPC | < -0.25
TNLGCDVYAHRMARMVDLRP | < -0.25
TNPLV | < -0.25
TNRLLLEIPSSSRLYWGTRG | < -0.25
TNSTSWPIRAVPRAGPWHGG | < -0.25
TPAGIETGAQEKWTELLTSS | < -0.25
TPASRRVV | < -0.25
TPDFTSYSISCSQPSSLLIF | < -0.25

A different layout for part of the listing above.
Substance	growth estimate
TMVRR	< -0.25
TMWTVYRDRIAQSGTSVAAI	< -0.25
TNEIALQQKATFPVCSRAMS	< -0.25
TNPLV	< -0.25
TPDFTSYSISCSQPSSLLIF	< -0.25

(next part)

Substance | growth estimate
TPEGFQLSTGLYRACPCDWC | < -0.25
TPEYPTRGVSHLSIFCPASR | < -0.25
TPGTKYKLGFYLTESQ | < -0.25
TPGTPSGPPYTAFKQ | < -0.25
TPIEMKGEVSSRFGVSRLRA | < -0.25
TPIKSRYVNGTVLACSYERA | < -0.25
TPISRKINSSMVFS | < -0.25
TPKGQNRLGLSLPGVKSHSA | < -0.25
TPLER | -0.246
TPLKRLARCCVRSWIQLFSP | < -0.25
TPLKYIPWRKLYREVTATRA | < -0.25
TPLLRGLRKSARRECQ | < -0.25
TPLPLDPRPVSSALNRQSAL | < -0.25
TPMCSRRCSIGDLVGLWNPG | < -0.25
TPMGLQTASRSLYLSRLH | -0.242
TPMGRLANSHEWNEVQDYIH | < -0.25
TPNRALRLRCEVRHVINVGQ | < -0.25
TPPAETIRSFL | -0.246
TPPS | < -0.25
TPRQYHNAA | -0.245
TPRYRDVEVPPHWDRLLSPL | < -0.25
TPSKISKSDLCSVYRGRISG | -0.25
TPSLATSCNTPWTVLSPVHF | 3.19
TPVLFSVGLQSRQVAGRESY | < -0.25

Substance | growth estimate
TQAGHGMCGSPTVVNGQLCI | < -0.25
TQASSDPIRHSSR | < -0.25
TQCCITS | < -0.25
TQCRRAKH | < -0.25
TQEGGHSETVDEGGSWNSAL | < -0.25
TQGGPQIESPGLS | < -0.25
TQGIPLHAASVLKLEPLPVV | < -0.25
TQGPRGWH | -0.229
TQHRGGRKME | < -0.25
TQIT | < -0.25
TQKLYQSLRESPGRACYERH | < -0.25
TQLASGRLR | < -0.25
TQLIGR | < -0.25
TQNYLPTWA | < -0.25
TQRRESRGEAASSSHSLMAH | < -0.25
TQSK | < -0.25
TQYNRANAGISFKHLTRPPA | < -0.25
TRAPLCPEYHG | < -0.25
TRAPRAQNHMHFLSLRTTPN | < -0.25
TRCLG | < -0.25
TRDLTYNGVCSSWRTG | < -0.25
TRDRLITRDATSGFARRLLC | < -0.25
TREGELRRVCCASKNPRDAD | < -0.25
TRFAKHATTWV | < -0.25

Three entries picked at random from those above:
Substance | growth estimate
TQGGPQIESPGLS | < -0.25
TRFAKHATTWV | < -0.25
TQCCITS | < -0.25

Remaining list, next part

Substance | growth estimate
TRFLR | < -0.25
TRFTASAHQGLWHNKHPQAA | < -0.25
TRGCYLYWTGGSFTAMLYYR | < -0.25
TRGILLAIQFGTWYRSQVSA | < -0.25
TRGVSRDRMHGKISGSQIRR | < -0.25
TRHSAGPCVDRDLPGESKRG | < -0.25
TRIIIVFRCTISAAAVQPRT | < -0.25
TRISLYRIRQTSLTWYPEGE | < -0.25
TRIVYHNVWE | -0.145
TRKLI | -0.246
TRKLPRGYVGRVSQARLPT | < -0.25
TRLEASPAYQFPERTRATGS | < -0.25
TRLKINNIPCSRLWAGHEVH | < -0.25
TRLTCSTPCF | < -0.25
TRMI | < -0.25
TRMKRPCVKMGSCLAAWIAS | < -0.25
TRMRDQR | < -0.25
TRMSPRNVVFAS | < -0.25
TRNALT | -0.246
TRNNSPSLTVLFARRHSLEV | < -0.25
TRNRGRGVPFWLEVIYVGFW | -0.246
TRPAYNSRANA | < -0.25
TRPHLTKGRTLLRQLGLEGI | < -0.25
TRPNPMARESCPHAYRLTLK | < -0.25

Substance | growth estimate
TRPYLVT | < -0.25
TRQEPDSGRTQGGKF | < -0.25
TRRAACGI | < -0.25
TRRAWGALMAMFSSLALAGR | < -0.25
TRRKLLR | < -0.25
TRRLPGVCLKNCAKGWIPVD | < -0.25
TRRRFTYAEGARLRITITGI | < -0.25
TRRRTNYALVEHPLHRRNRL | < -0.25
TRRSESSKVALTEHRSRGGN | -0.246
TRRSPAGVRKRGPRTPGPLT | < -0.25
TRSIDAWTLL | < -0.25
TRSMIQDKP | < -0.25
TRSRGSEFKKFRGGINWASL | < -0.25
TRSRQRTEHDPS | < -0.25
TRSTAAMDNFHCASFVGGYA | < -0.25
TRTDNRCA | < -0.25
TRTRSNETTAVKVCIYTTPD | < -0.25
TRTYGLRAVDQRTAL | < -0.25
TRVCMKEAGSGLFCPFCENL | < -0.25
TRVPVSASTS | < -0.25
TRVTSILISVVPRQRVCHIG | 0.121
TRY | < -0.25
TRYVPKSVN | < -0.25
TSASRKTT | < -0.25

Reformatted in markdown: entries from further up.

| Substance | growth estimate |
| --- | --- |
| TRNALT | -0.246 |
| TRRAACGI | < -0.25 |

The list goes on:

Substance | growth estimate
TSCFLVCLCPHV | < -0.25
TSCVAVESRGPPVNIWGVLT | -0.243
TSCVNGN | < -0.25
TSDGAGD | 0.141
TSDPVPAELPLPGGAAWFID | < -0.25
TSDSHANQNLLSSI | < -0.25
TSEQVN | -0.187
TSGGPRPLRTWLSSAS | < -0.25
TSGKP | < -0.25
TSGNGLAFDG | < -0.25
TSGRILSFKQYMSVDHVYP | < -0.25
TSGVKSRHPNPIGEPPTTPR | < -0.25
TSH | < -0.25
TSHKSFVHDYYNRPWSPSHG | < -0.25
TSHYQGQALDKTGNMLVEGD | < -0.25
TSISFEVYDRISDLYVYRQA | < -0.25
TSKPTFFQWS | < -0.25
TSLPRIRDSAGGSELFRAGL | < -0.25
TSMNVTFDLDPGLFVTVFAG | < -0.25
TSN | < -0.25
TSNPRDVILRLTPTDVHVEN | < -0.25
TSNRPFHVPGVQQRRGDAFQ | < -0.25
TSPAVDRCGLWCRSRHRTMG | < -0.25
